Results on 39 molecules are retold here after the supplement of paper PMC8047044.

For the experiment, the system named is Neuro-2a. The experiment in a line: neurite formation score, plate-normalized to DMSO control mean 5.04 (score (0-8 scale)); higher = more or longer neurites. Conditions: 10 µM.

SMILES strings stand for the structures. Several values for one entry are separate records, joined by “and”; a condition that tells them apart may be missing. Equal values may be shown once. Where a name gives a salt, the structure may show the parent alone. The list shows a part of the results. Many values rest on one well or one pass, so single values are uncertain.

Consider `COc1cc(CCc2cc(NC(=O)c3ccc(N4CC(C)NC(C)C4)cc3)n[nH]2)cc(OC)c1` (centres undefined), for which the neurite formation score stood at 0.519.
As to `FC(F)(F)c1ccc(/C=C/c2nc(COc3ccc(CCCCn4ccnn4)cc3)co2)cc1` [Mubritinib (TAK 165)], the neurite formation score was determined as 3.42.
`Cc1cc(CN2CCN(c3c(Br)cnc4nc(-c5ccc(N6CCN(C)CC6)cc5)[nH]c34)CC2)no1`: the neurite formation score came to 4.42.
Regarding `Cc1nc(N)sc1-c1ccnc(Nc2ccc(N3CCOCC3)cc2)n1`, the neurite formation score turned out to be 4.08.
In the case of `Cc1ccc(NC(=O)c2ccc(CN3CCN(C)CC3)cc2)cc1Nc1nc(-c2cccnc2)cs1` [Masitinib (AB1010)] it was 3.54; in that of `N#CCNC(=O)c1ccc(-c2ccnc(Nc3ccc(N4CCOCC4)cc3)n2)cc1` [CYT387 sulfate salt], 5.74.
`COc1cc(Nc2nc3ccccc3nc2NS(=O)(=O)c2ccc(NC(=O)c3ccc(C)c(OC)c3)cc2)cc(OC)c1` displayed a neurite formation score of 3.19.
`CCCCCCCCCCCCCCCCOP(=O)([O-])OCC[N+](C)(C)C` [Miltefosine] came in with a neurite formation score of 1.09.
Turning to `O=c1cc(-c2cccc3c2Sc2ccccc2S3)oc(N2CCOCC2)c1`, the neurite formation score was 2.08.
With `CC(C)(C)n1nc(Cc2cccc3ccccc23)c2c(N)ncnc21`, the neurite formation score was 2.76.
`C[C@@H]1CCN(C(=O)CC#N)C[C@@H]1N(C)c1ncnc2[nH]ccc12`: the neurite formation score is 4.41 and 4.08.
The molecule `CNC(=O)c1cc(Oc2ccc(NC(=O)Nc3ccc(Cl)c(C(F)(F)F)c3)cc2)ccn1` [Sorafenib Tosylate] registered a neurite formation score of 1.85.
As to `Nc1ccc(C(=O)Nc2cccc(-c3nc(N4CCOCC4)c4oc5ncccc5c4n3)c2)cn1`, the neurite formation score came out at 1.19.
In turn, `N#CC[C@H](C1CCCC1)n1cc(-c2ncnc3[nH]ccc23)cn1` [Ruxolitinib phosphate] gave a neurite formation score of 5.41.
Turning to `Cc1ccc([N+](=O)[O-])cc1S(=O)(=O)N(C)/N=C/c1cnc2ccc(Br)cn12`, the neurite formation score was 4.19.
In turn, `CCN1CCN(Cc2ccc(Nc3ncc(F)c(-c4cc(F)c5nc(C)n(C(C)C)c5c4)n3)nc2)CC1` returned a neurite formation score of 2.88.
In the case of `CNC(=O)Nc1ccc(-c2nc(N3CC4CCC(C3)O4)c3cnn(C4CCC5(CC4)OCCO5)c3n2)cc1` it was 4.86; in that of `Cc1nc(NC(=O)N2CCC[C@H]2C(N)=O)sc1-c1ccnc(C(C)(C)C(F)(F)F)c1`, 4.52.
On to `O=C(Nc1ccc(OC(F)(F)F)cc1)c1sccc1NCc1ccnc2ccccc12`, for which the neurite formation score turned out to be 0.543.
Regarding `CC(=O)c1c(C)c2cnc(Nc3ccc(N4CCNCC4)cn3)nc2n(C2CCCC2)c1=O`, the neurite formation score was 3.52 and 4.19.
Consider `COc1cc2c(Oc3ccc4[nH]c(C)cc4c3F)ncnc2cc1OCCCN1CCCC1` [Cediranib (AZD217)], for which the neurite formation score amounted to 2.88.
`CCN1CCN(Cc2ccc(NC(=O)Nc3ccc(Oc4cc(NC)ncn4)cc3)cc2C(F)(F)F)CC1` displayed a neurite formation score of 3.21.
`Cc1ncc(-c2ccnc(Nc3ccc(S(C)(=O)=O)cc3)n2)n1C(C)C` registered a neurite formation score of 2.85.
In the case of `CCc1cncnc1N1CCN(Cc2nc3ccc(C(F)(F)F)cc3[nH]2)CC1` it was 3.86.
`Cn1cc(-c2ccc3nnc(C(F)(F)c4ccc5ncccc5c4)n3n2)cn1` had a neurite formation score of 4.08.
Molecule `Oc1cccc(-c2nc(N3CCOCC3)c3oc4ncccc4c3n2)c1` [PI-103 Hydrochloride] displayed a neurite formation score of 5.41.
As to `Cc1[nH]c2ccccc2c1C1=C(NCCc2ccc(F)cc2)C(=O)N(C)C1=O`, the neurite formation score amounted to 4.52.
The molecule `COc1cc2ncnc(Sc3nnc(C)s3)c2cc1OC` yielded a neurite formation score of 1.09.
In turn, `Cc1cc(C(C)Nc2ccccc2)c2nc(N3CCOCC3)cc(=O)n2c1` (centres undefined) displayed a neurite formation score of 2.09.
In the case of `CN(C)CCSSCCNC(=O)C1CCN(C(=O)CSc2ccc(Cl)cc2)CC1` it was 1.43.
In turn, `N#Cc1c(NC(=O)c2cccc3ccccc23)sc2c1CCCC2` displayed a neurite formation score of 1.19.
Turning to `O=C1c2ccccc2-c2n[nH]c3cccc1c23`, the neurite formation score amounted to 1.74.
Consider `Nc1ncnc2c1c(-c1cnc3[nH]ccc3c1)nn2C1CCCC1`, for which the neurite formation score was found to be 3.86.
As to `CC(C)CCN1c2nc(Nc3cc(F)c(O)c(F)c3)ncc2N(C)C(=O)C1C` (centres undefined), the neurite formation score is 1.86.
In the case of `COc1cc2ncnc(Nc3cccc(Cl)c3)c2cc1OC` it was 4.85; in that of `NC(=O)c1ccc(-c2nc(-c3ccc4c(c3)OCCO4)c(-c3ccccn3)[nH]2)cc1`, 6.08; in that of `Cc1cc(Nc2cc(N3CCN(C)CC3)nc(/C=C/c3ccccc3)n2)n[nH]1` [ENMD-2076 L-(+)-Tartaric acid], 0.424.
For the molecule `COc1cc2ncnc(Nc3ccc(O)cc3)c2cc1OC`, the neurite formation score was found to be 5.41.
The molecule `Cc1ccc(F)c(NC(=O)Nc2ccc(-c3cccc4[nH]nc(N)c34)cc2)c1` [Linifanib (ABT-869)] displayed a neurite formation score of 3.09.
